Test [1] has as its target Nup58(239–415), entire ordered region of Nup58 from Rattus norvegicus, His6 tag cleaved (Rattus norvegicus) (UniProt P70581). Description: native gel or EMSA; fractions across the SEC peak of the triple complex run on discontinuous native PAGE (Tris-glycine pH 8.0, 20 V, 4 °C, 14 h); bands cut out, eluted and analysed by SDS-PAGE with silver staining; both purified. On the technique in general: A gel shift assay detects complexes by their altered migration in electrophoresis.

The chains behind the UniProt entries cited, without tags or fusion partners. Where a name states a change or a piece, a line headed by the entry shows the natural chain unless it says otherwise. A line that says so, or that is headed by a name, gives the form on record, which may keep a tag or linker. Residues count along the entry.
UniProt P70581: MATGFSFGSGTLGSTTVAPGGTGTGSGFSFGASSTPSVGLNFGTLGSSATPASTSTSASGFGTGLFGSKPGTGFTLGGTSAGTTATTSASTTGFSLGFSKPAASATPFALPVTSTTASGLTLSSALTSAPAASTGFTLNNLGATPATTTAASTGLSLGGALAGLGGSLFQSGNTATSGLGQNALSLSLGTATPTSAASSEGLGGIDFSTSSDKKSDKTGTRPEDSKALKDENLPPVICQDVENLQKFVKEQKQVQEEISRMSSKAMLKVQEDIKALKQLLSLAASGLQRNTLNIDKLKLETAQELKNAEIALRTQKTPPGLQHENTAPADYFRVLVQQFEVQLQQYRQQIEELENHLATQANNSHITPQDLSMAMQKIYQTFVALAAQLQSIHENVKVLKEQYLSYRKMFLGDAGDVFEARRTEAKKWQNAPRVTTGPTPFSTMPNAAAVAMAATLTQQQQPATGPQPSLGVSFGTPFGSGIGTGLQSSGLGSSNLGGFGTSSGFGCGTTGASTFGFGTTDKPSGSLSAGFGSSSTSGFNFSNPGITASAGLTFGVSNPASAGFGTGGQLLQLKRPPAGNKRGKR
His6-tagged Nup58, full-length ordered region (239–415): residues 239-415 of P70581

For test [2] the target is unchanged. Description: SEC-MALS; triple complex at 2 mg/ml and 5 mg/ml; Superdex200 10/300 GL with MALS and refractive index detectors; 4 °C; both purified.
For test [3] the target is unchanged. Kind of test: SEC; competition: preassembled triple complex (1.5 mg/ml) incubated with Nup54 (453–494) wild type or H469F/Q473L (0.6 mg/ml), then size-exclusion chromatography and SDS-PAGE of column fractions; both purified.
Test [4] shares this target. Kind of test: SEC; purified triple complex at increasing concentrations on Superdex200 10/300 GL; 10 mM Tris-Cl pH 8.0, 150 mM NaCl, 1 mM DTT (buffer A); 4 °C; both purified. On the technique in general: SEC sorts molecules by how far they enter the pores of the column.
For test [5], the target named is T1, MBP-Nup62(322–525) from Rattus norvegicus (Rattus norvegicus) (UniProt P17955).
T1 sequence: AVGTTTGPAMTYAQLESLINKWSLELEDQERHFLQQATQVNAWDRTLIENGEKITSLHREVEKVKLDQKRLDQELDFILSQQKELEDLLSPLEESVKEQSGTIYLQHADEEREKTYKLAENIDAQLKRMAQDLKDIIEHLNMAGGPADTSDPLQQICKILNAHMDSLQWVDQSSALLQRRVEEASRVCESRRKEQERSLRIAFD
Description: matrix-assisted depletion assay; MBP-Nup62·Nup54·Nup58 complex held on amylose resin in buffer A, incubated at 4 °C with increasing amounts of wild-type Nup54 (453–494); Nup58 released into the supernatant read by absorbance at 280 nm; both purified.

The target of test [6] is Nup58(239–415), entire ordered region of Nup58 from Rattus norvegicus, His6 tag cleaved (Rattus norvegicus) (UniProt P70581). Described as above.
In test [7] the target is His6-tagged Nup58, full-length ordered region (239–415) (Rattus norvegicus) (UniProt P70581). Description: pull-down; deletion constructs of the three channel nups co-expressed; complexes purified by affinity pulldown via the His6 tag of Nup58; eluates analysed by SDS-PAGE.
The target of test [8] is T2, Nup54(346–510), entire ordered region of Nup54 from Rattus norvegicus (Rattus norvegicus) (UniProt P70582).
T2 sequence: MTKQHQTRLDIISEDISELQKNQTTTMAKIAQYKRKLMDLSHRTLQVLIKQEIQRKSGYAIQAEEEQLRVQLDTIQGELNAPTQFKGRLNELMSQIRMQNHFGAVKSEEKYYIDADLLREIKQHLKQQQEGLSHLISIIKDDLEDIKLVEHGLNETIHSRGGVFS
Kind of test: native gel or EMSA; fractions across the SEC peak of the triple complex run on discontinuous native PAGE (Tris-glycine pH 8.0, 20 V, 4 °C, 14 h); bands cut out, eluted and analysed by SDS-PAGE with silver staining; both purified.

Test [9] has as its target T2, Nup54(346–510), entire ordered region of Nup54 from Rattus norvegicus (Rattus norvegicus). Description: SEC-MALS; triple complex at 2 mg/ml and 5 mg/ml; Superdex200 10/300 GL with MALS and refractive index detectors; 4 °C; both purified.
For test [10] the target is unchanged. Description: SEC; triple complex (5 mg/ml) on size-exclusion chromatography in the presence of 65 mM n-octyl-β-D-glucopyranoside, SDS-PAGE of column fractions; both purified.
For test [11] the target is unchanged. Kind of test: SEC; purified triple complex at increasing concentrations on Superdex200 10/300 GL; 10 mM Tris-Cl pH 8.0, 150 mM NaCl, 1 mM DTT (buffer A); 4 °C; both purified.
The target is the same in test [12]. Kind of test: pull-down; deletion constructs of the three channel nups co-expressed; complexes purified by affinity pulldown via the His6 tag of Nup58; eluates analysed by SDS-PAGE.

Results are given in words; binding and its absence hold for the method and conditions named. For some of these results: Binding seen in cells or lysates may run through a third protein. Some binding calls cover weakened binding; strength is not graded here. For some of these results: Where a sequence is shown, tags or fusion partners need not be part of it.

The text below walks through data of article PMC4513098, “Ordered Regions of Channel Nucleoporins Nup62, Nup54, and Nup58 Form Dynamic Complexes in Solution*” (The Journal of Biological Chemistry, 2015).

B1: Nup54(346–510), entire ordered region of Nup54 from Rattus norvegicus (domain or fragment, UniProt P70582 346-510)
chain: T2 sequence
As to B1, the binding entry in [1], in test [2], in test [3], in [4], in [5] and in test [6] was “binds” in each case. Further, in test [7], the binding result was “binds”.
Regarding EEKYYIDADLLREIKQFLKQLQEGLSHLISIIKDDLEDIKLV (domain or fragment, UniProt P70582 453-494) [Nup54 (453–494) mutant H469F/Q473L], the binding result in test [3] is reported as “no binding (tested: 0.6 mg/ml)”.

B2: Nup62(322–525), entire ordered region of Nup62 from Rattus norvegicus (domain or fragment, UniProt P17955 322-525)
chain: T1 sequence
Consider B2, for which the binding entry in test [8], in [9], in test [10], in test [11] and in test [12] was “binds” throughout.
